Source: paper PMC9949715

Key:
[1] = system: CgYB (Y-box factor), truncated (Crassostrea gigas); assay: EMSA; conditions: poly(dI:dC), EMSA: LightShift kit binding buffer, 3 pmol probe, 4 ul protein at 1 mg/ml (20 ul), 30 min, 25 C, recombinant protein, protein details: N-terminal 6xHis (pET-28a-SUMO), label: 5' biotin
[2] = system: CgYB (Y-box factor), truncated (Crassostrea gigas); assay: competition with a labelled probe; conditions: 10-fold excess unlabeled vs biotinylated g.-333C probe; EMSA: LightShift kit binding buffer, poly(dI:dC), 3 pmol probe, 4 ul protein at 1 mg/ml (20 ul), 30 min, 25 C; recombinant protein; protein details: N-terminal 6xHis (pET-28a-SUMO)
[3] = system: CgSREBP, truncated (Crassostrea gigas); assay: EMSA; conditions: poly(dI:dC), EMSA: LightShift kit binding buffer, 3 pmol probe, 4 ul protein at 1 mg/ml (20 ul), 30 min, 25 C, recombinant protein, protein details: 6xHis (pET-28a vector), label: 5' biotin
[4] = system: CgSREBP, truncated (Crassostrea gigas); assay: competition with a labelled probe; conditions: 10-fold excess unlabeled probe; EMSA: LightShift kit binding buffer, poly(dI:dC), 3 pmol probe, 4 ul protein at 1 mg/ml (20 ul), 30 min, 25 C; recombinant protein; protein details: 6xHis (pET-28a vector)
[5] = system: Y-box factor (endogenous) (Crassostrea gigas); assay: pull-down, MS; conditions: gill nuclear extract, Pull-down: 20 mM Tris-HCl, 4.5 mM EDTA, 60 mM NaCl, 10 mM HEPES, 5 mM CaCl2, 50 mM KCl, 9% sucrose, 12% glycerol, pH 7.5, room temperature, 15 min, protein in an extract, label: 5' biotin on strand 1

“AAGGAGTGACCATCCCTTGCA (double strand) [g.-333C EMSA probe]”: binds [1].
“AAGGAGTGACCATCCCTTGCA (double strand) [g.-333C unlabeled competitor]”: binds [2].
“AAGGAGTGACTATCCCTTGCA (double strand) [g.-333T EMSA probe]”: no binding [1].
“AGAATCGCGTGAAAA (double strand) [Scd promoter SREBP probe]”: binds [3].
“AGAATCGCGTGAAAA (double strand) [Scd promoter SREBP unlabeled competitor]”: binds [4].
“GACGTTTTGAAAGGAGTGACCATCCCTTGCAGAACTAGTCT (double strand) [g.-333C pull-down probe]”: binds [5].
“GACGTTTTGAAAGGAGTGACTATCCCTTGCAGAACTAGTCT (double strand) [g.-333T pull-down probe]”: no binding ([5]; not among proteins pulled by g.-333T).

The exact form of at least one protein or probe is not confirmed. For some of these results: No signal at the amounts used counts as a negative. For some of these results: At least one result comes from cells or an extract, where the contact may be indirect. For some of these results: At least one verdict was read from the data and is not stated in words by the source.
